Measured values: patent US20050090454A1, “Combination of dehydroepiandrosterone or dehydroepiandrosterone-sulfate with an antihistamine for treatment of asthma or chronic obstructive pulmonary disease” (priority 2003, published 2005)

Test: Emitted dose studies with dry powder inhalers

C[C@]12CC[C@H](OS(=O)(=O)[O-])CC1=CC[C@@H]1[C@@H]2CC[C@]2(C)C(=O)CC[C@@H]12.[Na+] [Anhydrous DHEA-S, sodium dehydroepiandrostenone sulfate]
Emitted Dose (%) (Diskhaler (2nd study), 87.8 L/min, three runs and Average): 59.1%
Emitted Dose (%) (Diskhaler, 30 L/min, three runs and average): 58.6%
Emitted Dose (%) (Diskhaler, 87.8 L/min, three runs and Average): 51.3%
Emitted Dose (%) (IDL Multi-Dose (2nd study), 87.8 L/min, three runs and Average): 84.8%
Emitted Dose (%) (IDL Multi-Dose, 30 L/min, three runs and Average): 85.4%
Emitted Dose (%) (IDL Multi-Dose, 87.8 L/min, three runs and Average): 72.6%
Emitted Dose (%) (Rotahaler, 60 L/min, three runs and Average): 57.3%
Emitted Dose (%) (Rotahaler, 87.8 L/min, micronized drug, three runs and Average): 69.7%
